According to PubChem BioAssay AID493027 (The Scripps Research Institute Molecular Screening Center, 2011):
Among all 2,000 compounds or so, about 45 (2%) were called active.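 The calls were made as follows: active = inhibition above the screen-wide mean inhibition plus 3 SD (cut at about 44% in these data); inactive = the rest.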 The list shows a part of the results.

Amino acid sequences for entries named in this document (tags omitted). A change or cut given only in a name is not applied to a line headed by its entry.
UniProt O60240: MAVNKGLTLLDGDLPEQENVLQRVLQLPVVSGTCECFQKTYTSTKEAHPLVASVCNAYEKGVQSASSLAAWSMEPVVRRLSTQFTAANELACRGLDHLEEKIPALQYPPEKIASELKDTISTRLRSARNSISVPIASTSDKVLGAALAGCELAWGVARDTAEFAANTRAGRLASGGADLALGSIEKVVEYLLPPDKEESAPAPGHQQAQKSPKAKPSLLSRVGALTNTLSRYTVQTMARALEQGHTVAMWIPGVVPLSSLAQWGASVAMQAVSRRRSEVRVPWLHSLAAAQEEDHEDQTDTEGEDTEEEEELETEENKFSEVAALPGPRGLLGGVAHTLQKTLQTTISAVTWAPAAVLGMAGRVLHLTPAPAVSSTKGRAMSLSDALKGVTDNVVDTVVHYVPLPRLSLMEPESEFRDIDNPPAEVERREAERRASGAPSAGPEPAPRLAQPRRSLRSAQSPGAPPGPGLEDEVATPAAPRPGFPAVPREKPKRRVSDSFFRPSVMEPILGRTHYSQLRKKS
UniProt Q8WTS1: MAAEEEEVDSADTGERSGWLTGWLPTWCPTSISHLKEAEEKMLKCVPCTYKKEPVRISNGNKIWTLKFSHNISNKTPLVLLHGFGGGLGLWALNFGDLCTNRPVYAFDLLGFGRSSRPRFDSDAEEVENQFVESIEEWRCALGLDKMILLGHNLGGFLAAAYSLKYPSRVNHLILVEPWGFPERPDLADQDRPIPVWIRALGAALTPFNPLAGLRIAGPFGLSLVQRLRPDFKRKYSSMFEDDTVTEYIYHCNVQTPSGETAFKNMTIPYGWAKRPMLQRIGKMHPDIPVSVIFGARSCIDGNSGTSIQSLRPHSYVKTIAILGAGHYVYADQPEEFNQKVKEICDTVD

Each compound was assayed against Perilipin-1 (Homo sapiens) + 1-acylglycerol-3-phosphate O-acyltransferase ABHD5 (Homo sapiens) (UniProt O60240+Q8WTS1) (assay: ABHD5-PLIN1 interaction inhibitors, pilot screen, cell lysate, split luciferase complementation, luminescence, NIH validation set (AID 493027;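 also: 0% = DMSO wells with the 100% control not disclosed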)). Settings: split G. princeps luciferase complementation, 4 h; at 7.9 µM, active compounds read high.

inhibition, inactive:
COc1cc(-c2nnc(-c3cccs3)o2)cc(OC)c1OC -1.61%, CC(C)C1Cc2[nH]c(=O)c(C(=O)O)cc2CO1 (stereo not drawn) -7.52%, CC1(C)Cc2nc3sc4c(=O)n(CC(N)=O)cnc4c3cc2CO1 -4.01%, NC[C@H]1O[C@H](O[C@H]2[C@H](O)[C@@H](O[C@H]3O[C@H](CO)[C@@H](O)[C@H](N)[C@H]3O)[C@H](N)C[C@@H]2N)[C@H](N)C[C@@H]1O -16.2%, Cc1[nH]c2ccccc2c1C(=O)CN1CCCC1 5.17%, COc1cc2c(cc1OC)CN(Cc1ccc(C)s1)CC2 2.36%, Cc1ccc(C(=O)COC(=O)c2cnccn2)cc1[N+](=O)[O-] -4.88%, NC12CC3CC(C1)CC(O)(C3)C2 -11.4%, COc1cc(OC)cc(C(=O)N[C@@H](CCSC)c2nc3ccccc3[nH]2)c1 2.97%, CC1(C)O[C@@H]2C[C@H]3[C@@H]4C[C@H](F)C5=CC(=O)C=C[C@]5(C)[C@@]4(F)[C@@H](O)C[C@]3(C)[C@]2(C(=O)CO)O1 0.56%, O=C(c1ccc(Cl)cc1)C1CCCN(C(=O)/C=C/c2ccccn2)C1 (stereo not drawn) 9.97%, CCOC(=O)C1=C(N)Oc2c(c(=O)[nH]c3ccccc23)C1c1ccccc1 (stereo not drawn) -33.2%, COc1ccc(CCNC(=O)CC(c2ccccc2)c2cccc(C)c2O)cc1OC (stereo not drawn) 4.47%, COc1ccc(/C=C2\CCc3ccccc3C2=O)c(OC)c1OC -0.86%, CC(=O)OCC(=O)C1=CCC2C3CCC4=CC(=O)C=CC4(C)C3(F)C(OC(C)=O)CC12C (stereo not drawn) -8.97%, CC#C[C@]1(O)CC[C@H]2[C@@H]3CCC4=CC(=O)CCC4=C3[C@@H](c3ccc(N(C)C)cc3)C[C@@]21C 15.2%, COc1ccc(Cl)cc1C(=O)NCCc1ccc(S(=O)(=O)NC(=O)NC2CCCCC2)cc1 3.61%, FC(F)(F)c1ccc(-c2noc(CN3CCCN(C4CCCCC4)CC3)n2)cc1 -8.86%, COc1cc(CNCCc2c[nH]c3ccccc23)cc(Cl)c1OCC(N)=O 2.16%, COc1cc2[nH]c3c(=O)n(CCN4CCOCC4)cnc3c2cc1OC -2.51%, CC(C)N(C(=O)Cc1ccccc1[N+](=O)[O-])C(C)C -4.05%, CC(=O)Nc1nnc(S(N)(=O)=O)s1 3.22%, CC(C)Oc1ccc2c(=O)c(-c3ccccc3)coc2c1 4.58%, CO[C@H]1C=CO[C@@]2(C)Oc3c(C)c(O)c4c(O)c(c(C=NN5CCN(C)CC5)c(O)c4c3C2=O)NC(=O)C(C)=CC=C[C@H](C)[C@H](O)[C@@H](C)[C@@H](O)[C@@H](C)[C@H](OC(C)=O)[C@@H]1C 3.72%, COC(=O)c1ccc(CC(=O)c2ccc(O)cc2O)o1 19.2%, O=C(O)c1ccc(N2C(=O)/C(=C\c3ccccc3)N=C2c2ccccc2)cc1 13.6%, CC(/C=C1\SC(=O)N(CCCC(=O)O)C1=O)=C\c1ccccc1 13.5%, CCc1cc(/C(Cc2ccccn2)=N\O)c(O)cc1O 3.21%, CCc1cc(-c2[nH]ncc2-c2ccc3c(c2)OCO3)c(O)cc1O 16.6%, Cc1ccc(C(=O)Nc2ccc(O)cc2C(=O)O)cc1C -7.39%, COc1ccc(C2OC(=O)Cc3cc(OC)c(OC)cc32)cc1 (stereo not drawn) -1.64%, CCc1c(C)c2ccc(OCC(=O)OC(C)C)c(C)c2oc1=O 0.77%, Cc1ccc2c(c1)c1c3n2CCCN(Cc2ccccc2)C3CCC1 (stereo not drawn) -8.82%, CC(C)[C@H](NC(=O)[C@@H]1CSCN1C(=O)OC(C)(C)C)C(=O)NCC1CCC(C(=O)O)CC1 (stereo partly drawn) -18.7%, COc1ccc(C(=O)[C@H]2[C@H]3C(=O)N(c4ccccc4)C(=O)[C@H]3C3C=CC=NN32)cc1 (stereo partly drawn) 4.5%, Cc1ccc2[nH]c3c(=O)n(CCCN4CCN(C)CC4)cnc3c2c1 -8.5%, CC1(C)c2ccccc2N2CC(=O)N(CC(N)=O)C21C (stereo not drawn) 4.18%, COCC(C)NC(=O)c1ccc(CN2CCc3ccccc3C2)cc1 (stereo not drawn) -5.17%, CC(C)C(CCN1C(=O)CCC1=O)C1CCOC(C)(C)C1 (stereo not drawn) -3.32%, C[C@@H]1CCC[C@H](C)N1NC(=O)c1ccc(Cl)c(S(N)(=O)=O)c1 -11.3%, O=C(CCCN1C(=O)/C(=C\c2cccc(Br)c2)SC1=S)Nc1cccnc1 35.1%, COC(=O)c1ccccc1OCCOCCOc1cccc2ccc(C)nc12 -2.67%, CCN(CC)CCNC(=O)c1ccc(N)cc1 -8.9%, OC[C@@H](O)[C@@H](O[C@H]1O[C@H](CO)[C@@H](O)[C@H](O)[C@H]1O)[C@H](O)[C@@H](O)CO -12.7%, C[N+](C)(C)CCCC(=O)c1ccc2c(c1)OCO2 -1.39%, CC(=O)C1=C(O)C(=O)N(Cc2cccnc2)C1c1ccc(C(C)C)cc1 (stereo not drawn) 3.77%, COc1cc2cc(C)nc(Cc3cccc4ccccc34)c2cc1OC 16.5%, COc1cc(/C=C/C(=O)N2CCCC2)cc(OC)c1OC -1.8%
